The text below walks through data of the supplement of paper PMC10300260.

Some of the results follow. Most values come without repeats; read them as rough.

This assay has as its system TcK2 kinase domain KD5 (eIF2alpha kinase TcYC6_0089220, Trypanosoma cruzi). Description: thermal shift (delta Tm vs DMSO); higher = stronger stabilisation / binding. The note with it: compound: 2 ul of 1 mM stock per well; protein concentration: 2 uM.
For `CC(C)c1cnn2c(NCc3ccccc3)cc(NCCCCCCN)nc12`, the thermal shift is -0.123 °C.

As to `COc1cc(Nc2nc3ccccc3nc2NS(=O)(=O)c2ccc(NC(=O)c3ccc(C)c(OC)c3)cc2)cc(OC)c1`, the thermal shift is -0.169 °C.

On to `N#CC(=C(/N)Sc1ccccc1N)/C(C#N)=C(\N)Sc1ccccc1N`, for which the thermal shift was -0.405 °C.

Take `N#Cc1c(O)c2c(-c3ccc(-c4ccccc4O)cc3)csc2[nH]c1=O`: the thermal shift was -0.0351 °C.

Consider `CCN(CCCOc1ccc2c(Nc3cc(CC(=O)Nc4cccc(F)c4)[nH]n3)ncnc2c1)CCOP(=O)(O)O` [Barasertib (AZD1152-HQPA)], for which the thermal shift stood at 0.494 °C.

In the case of `O=C(/C=C/c1ccc2ccccc2n1)c1ccncc1`, the thermal shift is -2.3 °C.

For `Cn1cc(-c2cnn3c(N)c(Br)c([C@@H]4CCCNC4)nc23)cn1`, the thermal shift was 0.254 °C.

As to `Cc1ccccc1-n1c(Cn2nc(-c3cccc(O)c3)c3c(N)ncnc32)nc2cccc(C)c2c1=O`, the thermal shift was -0.166 °C.

In the case of `CCc1ccc(/C=C2/SC(=S)NC2=O)cc1`, the thermal shift was -0.548 °C.
